Results deposited as PubChem BioAssay AID1508588 (Peter MacCallum Cancer Centre, 2020)
Purpose: 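Genome-wide search for knock-downs that heighten vemurafenib action in melanoma cells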 (primary screen). Cell system: human WM266.4 melanoma cells (BRAF V600 mutant). Reagent: siRNA pool against human genes, 40 nM. Timing: 96 h from transfection to read-out. Conditions: vemurafenib 300 nM (about IC25), added 48 h after transfection, for 48 h; comparison arm got DMSO vehicle only. Read-out: 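Ratios to non-targeting siRNA for cell gain, counted as DAPI nuclei after minus before drug and averaged over two replicates, and for absorbance-read medium lactate per cell; both binned into fold-change classes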. Reading the numbers: cell gain with vemurafenib: higher = more cell gain than with non-targeting siRNA; lactate per cell with vemurafenib: higher = more lactate made per cell. Call rule: 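Enhancement is called by pairing each knock-down's vehicle-arm and drug-arm fold-change classes for viability or glycolysis; which class combinations qualify is not given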. Calls: active = enhances vemurafenib effect; inactive = no enhancement seen.
This is one part, drawn at random, of about 18,000 reagents tested. Of all reagents, 790 (4.4%) were called active. 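Calls rest on a combination of fold-change classes in drug and vehicle arms, not all shown here.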 No sequences are given here.

target gene | cell gain with vemurafenib | lactate per cell with vemurafenib | call
SSBP4 | 0.28 | 0.64 | inactive
KLF15 | 0.85 | 1.07 | inactive
ESS2 | 0.24 | 0.4 | active
UPK3A | 0.62 | 0.73 | inactive
SUMF1 | 0.39 | 0.43 | inactive
KTI12 | 0.66 | 0.46 | active
NOXRED1 | 0.76 | 0.34 | inactive
TMED2 | 0.88 | 0.78 | inactive
AK5 | 0.73 | 1.06 | inactive
TSPAN16 | 0.9 | 0.9 | inactive
GALR1 | 0.68 | 0.7 | inactive
KLF4 | 0.55 | 0.98 | inactive
MAP4K5 | 0.73 | 1 | inactive
GPR137B | 0.63 | 0.52 | inactive
HMGCS2 | 0.82 | 1.27 | inactive
ADGRA3 | 1.03 | 0.51 | inactive
PCP2 | 0.38 | 1.22 | inactive
HMGN3 | 0.49 | 1.54 | inactive
ZNF777 | 0.11 | 1.83 | inactive
LMO7 | 1.06 | 0.82 | inactive
TFAP2B | 0.74 | 0.78 | inactive
PIP5K1A | 1.01 | 0.84 | inactive
C4orf51 | 0.23 | 0.62 | inactive
GNAZ | 0.36 | 1.01 | inactive
ARL17B | 0.77 | 1.36 | inactive
PPP1R9A | 0.79 | 0.87 | inactive
LYPD2 | 0.26 | 1.17 | inactive
OR6S1 | 0.59 | 1.25 | inactive
SH3GL2 | 1.48 | 0.62 | inactive
LRRC32 | 0.1 | 1.65 | inactive
GGT7 | 0.78 | 0.75 | inactive
CTXN1 | 0.61 | 0.49 | inactive
SCN4B | 0.85 | 0.88 | inactive
KCTD3 | 0.59 | 1.66 | inactive
LINC02903 | 0.55 | 0.8 | inactive
DPPA2 | 1.18 | 0.46 | inactive
SVOP | 0.96 | 0.42 | inactive

Sorted by “lactate per cell with vemurafenib” (low to high): some entries from above.
target gene | cell gain with vemurafenib | lactate per cell with vemurafenib | call
ADGRA3 | 1.03 | 0.51 | inactive
C4orf51 | 0.23 | 0.62 | inactive
SH3GL2 | 1.48 | 0.62 | inactive
TFAP2B | 0.74 | 0.78 | inactive
LMO7 | 1.06 | 0.82 | inactive
PIP5K1A | 1.01 | 0.84 | inactive
PPP1R9A | 0.79 | 0.87 | inactive
GNAZ | 0.36 | 1.01 | inactive
LYPD2 | 0.26 | 1.17 | inactive
PCP2 | 0.38 | 1.22 | inactive
OR6S1 | 0.59 | 1.25 | inactive
HMGCS2 | 0.82 | 1.27 | inactive
ARL17B | 0.77 | 1.36 | inactive
HMGN3 | 0.49 | 1.54 | inactive
LRRC32 | 0.1 | 1.65 | inactive
ZNF777 | 0.11 | 1.83 | inactive

Next reagents follow.
target gene | cell gain with vemurafenib | lactate per cell with vemurafenib | call
CTNNB1 | 0.73 | 1.1 | inactive
CCL23 | 0.71 | 0.75 | inactive
PGLS | 0.23 | 0.99 | inactive
ASF1A | 0.94 | 0.42 | inactive
CFP | 0.95 | 0.84 | inactive
BHLHA15 | 0.86 | 0.88 | inactive
QDPR | 0.86 | 0.79 | inactive
NAA80 | 0.32 | 1.53 | inactive
NID2 | 0.71 | 0.59 | inactive
PRELP | 0.05 | 0.34 | active
MERTK | 0.81 | 1.48 | inactive
CCDC12 | 0.72 | 0.32 | inactive
TAP2 | 0.35 | 1.18 | inactive
TNFRSF17 | 0.09 | 1.27 | inactive
KLRK1 | 0.77 | 0.92 | inactive
TAF5L | 0.71 | 1.4 | inactive
GCGR | 0.16 | 0.77 | inactive
TRIM7 | 1.04 | 0.88 | inactive
TAAR8 | 0.88 | 0.75 | inactive
GLCE | 0.62 | 0.64 | inactive
TRH | 0.55 | 1.11 | inactive
PSTK | 0.56 | 0.67 | inactive
FPR3 | 0.73 | 1.06 | inactive
MARK4 | 0.18 | 1.08 | inactive
DEPTOR | 0.85 | 1.17 | inactive
TEC | 0.99 | 0.84 | inactive
IKZF2 | 0.84 | 0.86 | inactive
PAQR7 | 0.39 | 1.88 | inactive
SNTA1 | 0.06 | 0.84 | inactive
CYB5D1 | 0.87 | 1.08 | inactive
CD300A | 0.73 | 0.72 | inactive
ATP6V1C2 | 0.33 | 0.41 | inactive
TMEM126B | 0.77 | 1.09 | inactive
ATP13A5 | 0.39 | 0.76 | inactive
LST1 | 0.25 | 2.44 | inactive
PRR4 | 0.53 | 0.97 | inactive
RIPPLY3 | 0.91 | 0.52 | inactive
BTN2A2 | 0.72 | 0.52 | inactive
CD300C | 0.53 | 1.48 | inactive
ABCC6 | 0.16 | 1.15 | inactive
SLC17A6 | 0.84 | 0.54 | inactive
MAP1A | 0.36 | 0.66 | active
CBY1 | 0.6 | 0.86 | inactive
VPS41 | 1.03 | 0.52 | inactive
MED15 | 0.43 | 1.86 | inactive
SAPCD1 | 0.68 | 0.93 | inactive
KLF17 | 1.02 | 0.97 | inactive
CCND3 | 0.57 | 1.82 | inactive
HSPA4 | 0.52 | 0.57 | inactive
CDS2 | 0.47 | 0.86 | inactive
FGD2 | 0.47 | 0.61 | active
DMXL1 | 1 | 1.09 | inactive
USP3 | 0.76 | 0.54 | inactive
GOLGA1 | 0.68 | 0.86 | inactive
GRID1 | 0.71 | 0.62 | inactive
RAPGEF5 | 0.59 | 0.85 | inactive
TRPM8 | 0.76 | 1.31 | inactive
OR13J1 | 0.96 | 1.03 | inactive
XPO5 | 0.8 | 0.47 | inactive
CKB | 0.75 | 1 | inactive
IZUMO1R | 0.83 | 0.44 | inactive
MTR | 0.55 | 0.5 | inactive
ARHGEF15 | 0.89 | 0.68 | inactive
EFHC1 | 0.71 | 1.13 | inactive
FSTL3 | -0.03 | 3.73 | inactive
CREB3 | 0.59 | 0.8 | inactive
EMG1 | 0.19 | 2.91 | inactive
SNAPC5 | 0.33 | 2.08 | inactive
GP5 | 1.07 | 0.92 | inactive
MED1 | 0.53 | 1.15 | inactive
